These are yes or no findings as the source states them, for the method shown. Binding seen in cells or lysates may run through a third protein. A yes stands for co-enrichment or nearness to the bait. Other partners may have been found.
B1: USP8 (enzyme, UniProt P40818 1-1118)
chain: MPAVASVPKELYLSSSLKDLNKKTEVKPEKISTKSYVHSALKIFKTAEECRLDRDEERAYVLYMKYVTVYNLIKKRPDFKQQQDYFHSILGPGNIKKAVEEAERLSESLKLRYEEAEVRKKLEEKDRQEEAQRLQQKRQETGREDGGTLAKGSLENVLDSKDKTQKSNGEKNEKCETKEKGAITAKELYTMMTDKNISLIIMDARRMQDYQDSCILHSLSVPEEAISPGVTASWIEAHLPDDSKDTWKKRGNVEYVVLLDWFSSAKDLQIGTTLRSLKDALFKWESKTVLRNEPLVLEGGYENWLLCYPQYTTNAKVTPPPRRQNEEVSISLDFTYPSLEESIPSKPAAQTPPASIEVDENIELISGQNERMGPLNISTPVEPVAASKSDVSPIIQPVPSIKNVPQIDRTKKPAVKLPEEHRIKSESTNHEQQSPQSGKVIPDRSTKPVVFSPTLMLTDEEKARIHAETALLMEKNKQEKELRERQQEEQKEKLRKEEQEQKAKKKQEAEENEITEKQQKAKEEMEKKESEQAKKEDKETSAKRGKEITGVKRQSKSEHETSDAKKSVEDRGKRCPTPEIQKKSTGDVPHTSVTGDSGSGKPFKIKGQPESGILRTGTFREDTDDTERNKAQREPLTRARSEEMGRIVPGLPSGWAKFLDPITGTFRYYHSPTNTVHMYPPEMAPSSAPPSTPPTHKAKPQIPAERDREPSKLKRSYSSPDITQAIQEEEKRKPTVTPTVNRENKPTCYPKAEISRLSASQIRNLNPVFGGSGPALTGLRNLGNTCYMNSILQCLCNAPHLADYFNRNCYQDDINRSNLLGHKGEVAEEFGIIMKALWTGQYRYISPKDFKITIGKINDQFAGYSQQDSQELLLFLMDGLHEDLNKADNRKRYKEENNDHLDDFKAAEHAWQKHKQLNESIIVALFQGQFKSTVQCLTCHKKSRTFEAFMYLSLPLASTSKCTLQDCLRLFSKEEKLTDNNRFYCSHCRARRDSLKKIEIWKLPPVLLVHLKRFSYDGRWKQKLQTSVDFPLENLDLSQYVIGPKNNLKKYNLFSVSNHYGGLDGGHYTAYCKNAARQRWFKFDDHEVSDISVSSVKSSAAYILFYTSLGPRVTDVAT
B2: USP15 (enzyme, UniProt Q9Y4E8 1-981)
chain: MAEGGAADLDTQRSDIATLLKTSLRKGDTWYLVDSRWFKQWKKYVGFDSWDKYQMGDQNVYPGPIDNSGLLKDGDAQSLKEHLIDELDYILLPTEGWNKLVSWYTLMEGQEPIARKVVEQGMFVKHCKVEVYLTELKLCENGNMNNVVTRRFSKADTIDTIEKEIRKIFSIPDEKETRLWNKYMSNTFEPLNKPDSTIQDAGLYQGQVLVIEQKNEDGTWPRGPSTPKSPGASNFSTLPKISPSSLSNNYNNMNNRNVKNSNYCLPSYTAYKNYDYSEPGRNNEQPGLCGLSNLGNTCFMNSAIQCLSNTPPLTEYFLNDKYQEELNFDNPLGMRGEIAKSYAELIKQMWSGKFSYVTPRAFKTQVGRFAPQFSGYQQQDCQELLAFLLDGLHEDLNRIRKKPYIQLKDADGRPDKVVAEEAWENHLKRNDSIIVDIFHGLFKSTLVCPECAKISVTFDPFCYLTLPLPMKKERTLEVYLVRMDPLTKPMQYKVVVPKIGNILDLCTALSALSGIPADKMIVTDIYNHRFHRIFAMDENLSSIMERDDIYVFEININRTEDTEHVIIPVCLREKFRHSSYTHHTGSSLFGQPFLMAVPRNNTEDKLYNLLLLRMCRYVKISTETEETEGSLHCCKDQNINGNGPNGIHEEGSPSEMETDEPDDESSQDQELPSENENSQSEDSVGGDNDSENGLCTEDTCKGQLTGHKKRLFTFQFNNLGNTDINYIKDDTRHIRFDDRQLRLDERSFLALDWDPDLKKRYFDENAAEDFEKHESVEYKPPKKPFVKLKDCIELFTTKEKLGAEDPWYCPNCKEHQQATKKLDLWSLPPVLVVHLKRFSYSRYMRDKLDTLVDFPINDLDMSEFLINPNAGPCRYNLIAVSNHYGGMGGGHYTAFAKNKDDGKWYYFDDSSVSTASEDQIVSKAAYVLFYQRQDTFSGTGFFPLDRETKGASAATGIPLESDEDSNDNDNDIENENCMHTN
B3: USP19 (enzyme, UniProt O94966 1-1318)
chain: MSGGASATGPRRGPPGLEDTTSKKKQKDRANQESKDGDPRKETGSRYVAQAGLEPLASGDPSASASHAAGITGSRHRTRLFFPSSSGSASTPQEEQTKEGACEDPHDLLATPTPELLLDWRQSAEEVIVKLRVGVGPLQLEDVDAAFTDTDCVVRFAGGQQWGGVFYAEIKSSCAKVQTRKGSLLHLTLPKKVPMLTWPSLLVEADEQLCIPPLNSQTCLLGSEENLAPLAGEKAVPPGNDPVSPAMVRSRNPGKDDCAKEEMAVAADAATLVDEPESMVNLAFVKNDSYEKGPDSVVVHVYVKEICRDTSRVLFREQDFTLIFQTRDGNFLRLHPGCGPHTTFRWQVKLRNLIEPEQCTFCFTASRIDICLRKRQSQRWGGLEAPAARVGGAKVAVPTGPTPLDSTPPGGAPHPLTGQEEARAVEKDKSKARSEDTGLDSVATRTPMEHVTPKPETHLASPKPTCMVPPMPHSPVSGDSVEEEEEEEKKVCLPGFTGLVNLGNTCFMNSVIQSLSNTRELRDFFHDRSFEAEINYNNPLGTGGRLAIGFAVLLRALWKGTHHAFQPSKLKAIVASKASQFTGYAQHDAQEFMAFLLDGLHEDLNRIQNKPYTETVDSDGRPDEVVAEEAWQRHKMRNDSFIVDLFQGQYKSKLVCPVCAKVSITFDPFLYLPVPLPQKQKVLPVFYFAREPHSKPIKFLVSVSKENSTASEVLDSLSQSVHVKPENLRLAEVIKNRFHRVFLPSHSLDTVSPSDTLLCFELLSSELAKERVVVLEVQQRPQVPSVPISKCAACQRKQQSEDEKLKRCTRCYRVGYCNQLCQKTHWPDHKGLCRPENIGYPFLVSVPASRLTYARLAQLLEGYARYSVSVFQPPFQPGRMALESQSPGCTTLLSTGSLEAGDSERDPIQPPELQLVTPMAEGDTGLPRVWAAPDRGPVPSTSGISSEMLASGPIEVGSLPAGERVSRPEAAVPGYQHPSEAMNAHTPQFFIYKIDSSNREQRLEDKGDTPLELGDDCSLALVWRNNERLQEFVLVASKELECAEDPGSAGEAARAGHFTLDQCLNLFTRPEVLAPEEAWYCPQCKQHREASKQLLLWRLPNVLIVQLKRFSFRSFIWRDKINDLVEFPVRNLDLSKFCIGQKEEQLPSYDLYAVINHYGGMIGGHYTACARLPNDRSSQRSDVGWRLFDDSTVTTVDESQVVTRYAYVLFYRRRNSPVERPPRAGHSEHHPDLGPAAEAAASQASRIWQELEAEEEPVPEGSGPLGPWGPQDWVGPLPRGPTTPDEGCLRYFVLGTVAALVALVLNVFYPLVSQSRWR
B4: USP47 (enzyme, UniProt Q96K76 1-1375)
chain: MVPGEENQLVPKEDVFWRCRQNIFDEMKKKFLQIENAAEEPRVLCIIQDTTNSKTVNERITLNLPASTPVRKLFEDVANKVGYINGTFDLVWGNGINTADMAPLDHTSDKSLLDANFEPGKKNFLHLTDKDGEQPQILLEDSSAGEDSVHDRFIGPLPREGSGGSTSDYVSQSYSYSSILNKSETGYVGLVNQAMTCYLNSLLQTLFMTPEFRNALYKWEFEESEEDPVTSIPYQLQRLFVLLQTSKKRAIETTDVTRSFGWDSSEAWQQHDVQELCRVMFDALEQKWKQTEQADLINELYQGKLKDYVRCLECGYEGWRIDTYLDIPLVIRPYGSSQAFASVEEALHAFIQPEILDGPNQYFCERCKKKCDARKGLRFLHFPYLLTLQLKRFDFDYTTMHRIKLNDRMTFPEELDMSTFIDVEDEKSPQTESCTDSGAENEGSCHSDQMSNDFSNDDGVDEGICLETNSGTEKISKSGLEKNSLIYELFSVMVHSGSAAGGHYYACIKSFSDEQWYSFNDQHVSRITQEDIKKTHGGSSGSRGYYSSAFASSTNAYMLIYRLKDPARNAKFLEVDEYPEHIKNLVQKERELEEQEKRQREIERNTCKIKLFCLHPTKQVMMENKLEVHKDKTLKEAVEMAYKMMDLEEVIPLDCCRLVKYDEFHDYLERSYEGEEDTPMGLLLGGVKSTYMFDLLLETRKPDQVFQSYKPGEVMVKVHVVDLKAESVAAPITVRAYLNQTVTEFKQLISKAIHLPAETMRIVLERCYNDLRLLSVSSKTLKAEGFFRSNKVFVESSETLDYQMAFADSHLWKLLDRHANTIRLFVLLPEQSPVSYSKRTAYQKAGGDSGNVDDDCERVKGPVGSLKSVEAILEESTEKLKSLSLQQQQDGDNGDSSKSTETSDFENIESPLNERDSSASVDNRELEQHIQTSDPENFQSEERSDSDVNNDRSTSSVDSDILSSSHSSDTLCNADNAQIPLANGLDSHSITSSRRTKANEGKKETWDTAEEDSGTDSEYDESGKSRGEMQYMYFKAEPYAADEGSGEGHKWLMVHVDKRITLAAFKQHLEPFVGVLSSHFKVFRVYASNQEFESVRLNETLSSFSDDNKITIRLGRALKKGEYRVKVYQLLVNEQEPCKFLLDAVFAKGMTVRQSKEELIPQLREQCGLELSIDRFRLRKKTWKNPGTVFLDYHIYEEDINISSNWEVFLEVLDGVEKMKSMSQLAVLSRRWKPSEMKLDPFQEVVLESSSVDELREKLSEISGIPLDDIEFAKGRGTFPCDISVLDIHQDLDWNPKVSTLNVWPLYICDDGAVIFYRDKTEELMELTDEQRNELMKKESSRLQKTGHRVTYSPRKEKALKIYLDGAPNKDLTQD

By UniProt entry, the sequences of proteins in these tests, tags left out.
UniProt Q96P20: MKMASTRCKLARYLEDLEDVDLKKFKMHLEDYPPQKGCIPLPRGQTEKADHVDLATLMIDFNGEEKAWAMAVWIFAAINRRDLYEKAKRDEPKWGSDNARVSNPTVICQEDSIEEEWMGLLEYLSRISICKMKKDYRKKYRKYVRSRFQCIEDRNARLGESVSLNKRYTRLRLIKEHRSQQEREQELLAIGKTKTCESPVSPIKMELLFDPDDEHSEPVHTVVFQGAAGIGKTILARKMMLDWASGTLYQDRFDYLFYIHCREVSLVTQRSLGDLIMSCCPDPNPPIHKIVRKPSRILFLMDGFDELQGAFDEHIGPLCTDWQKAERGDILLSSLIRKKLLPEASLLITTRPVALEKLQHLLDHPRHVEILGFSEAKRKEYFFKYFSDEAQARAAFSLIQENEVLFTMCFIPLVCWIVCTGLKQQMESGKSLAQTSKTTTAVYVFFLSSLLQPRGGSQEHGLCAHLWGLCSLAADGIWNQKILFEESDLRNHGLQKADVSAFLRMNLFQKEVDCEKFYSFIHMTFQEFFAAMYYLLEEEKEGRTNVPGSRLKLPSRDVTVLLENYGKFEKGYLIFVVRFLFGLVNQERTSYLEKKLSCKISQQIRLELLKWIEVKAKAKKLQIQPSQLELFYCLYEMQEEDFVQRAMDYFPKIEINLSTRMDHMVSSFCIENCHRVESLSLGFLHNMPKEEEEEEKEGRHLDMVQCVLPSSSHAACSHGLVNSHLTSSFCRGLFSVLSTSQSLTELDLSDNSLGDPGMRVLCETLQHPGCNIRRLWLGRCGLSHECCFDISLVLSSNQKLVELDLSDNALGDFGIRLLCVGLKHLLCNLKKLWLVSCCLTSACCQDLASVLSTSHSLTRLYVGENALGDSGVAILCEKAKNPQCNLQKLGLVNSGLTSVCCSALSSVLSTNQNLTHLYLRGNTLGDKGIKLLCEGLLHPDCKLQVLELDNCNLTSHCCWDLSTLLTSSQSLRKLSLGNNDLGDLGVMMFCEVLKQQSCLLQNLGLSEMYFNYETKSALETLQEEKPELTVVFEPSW
UniProt O94782: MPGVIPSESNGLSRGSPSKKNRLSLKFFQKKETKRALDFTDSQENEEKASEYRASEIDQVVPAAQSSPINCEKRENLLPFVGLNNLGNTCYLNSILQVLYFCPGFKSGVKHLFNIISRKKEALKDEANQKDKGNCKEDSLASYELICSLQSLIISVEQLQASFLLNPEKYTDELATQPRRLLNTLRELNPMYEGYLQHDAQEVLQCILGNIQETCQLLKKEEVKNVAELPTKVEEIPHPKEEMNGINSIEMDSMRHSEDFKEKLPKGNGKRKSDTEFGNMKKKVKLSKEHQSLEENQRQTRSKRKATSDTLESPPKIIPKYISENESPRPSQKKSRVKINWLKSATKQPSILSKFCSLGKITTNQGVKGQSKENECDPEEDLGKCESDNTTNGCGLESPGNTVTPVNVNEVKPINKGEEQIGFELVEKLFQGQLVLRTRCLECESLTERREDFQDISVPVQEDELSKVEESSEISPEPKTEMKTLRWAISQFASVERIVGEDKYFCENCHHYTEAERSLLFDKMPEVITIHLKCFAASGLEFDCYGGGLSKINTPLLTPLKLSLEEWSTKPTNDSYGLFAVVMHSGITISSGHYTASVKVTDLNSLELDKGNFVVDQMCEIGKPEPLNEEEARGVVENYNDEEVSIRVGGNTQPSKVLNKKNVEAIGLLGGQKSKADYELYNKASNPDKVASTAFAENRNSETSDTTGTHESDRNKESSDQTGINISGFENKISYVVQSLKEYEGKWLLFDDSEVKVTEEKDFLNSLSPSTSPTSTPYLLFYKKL
UniProt P45974: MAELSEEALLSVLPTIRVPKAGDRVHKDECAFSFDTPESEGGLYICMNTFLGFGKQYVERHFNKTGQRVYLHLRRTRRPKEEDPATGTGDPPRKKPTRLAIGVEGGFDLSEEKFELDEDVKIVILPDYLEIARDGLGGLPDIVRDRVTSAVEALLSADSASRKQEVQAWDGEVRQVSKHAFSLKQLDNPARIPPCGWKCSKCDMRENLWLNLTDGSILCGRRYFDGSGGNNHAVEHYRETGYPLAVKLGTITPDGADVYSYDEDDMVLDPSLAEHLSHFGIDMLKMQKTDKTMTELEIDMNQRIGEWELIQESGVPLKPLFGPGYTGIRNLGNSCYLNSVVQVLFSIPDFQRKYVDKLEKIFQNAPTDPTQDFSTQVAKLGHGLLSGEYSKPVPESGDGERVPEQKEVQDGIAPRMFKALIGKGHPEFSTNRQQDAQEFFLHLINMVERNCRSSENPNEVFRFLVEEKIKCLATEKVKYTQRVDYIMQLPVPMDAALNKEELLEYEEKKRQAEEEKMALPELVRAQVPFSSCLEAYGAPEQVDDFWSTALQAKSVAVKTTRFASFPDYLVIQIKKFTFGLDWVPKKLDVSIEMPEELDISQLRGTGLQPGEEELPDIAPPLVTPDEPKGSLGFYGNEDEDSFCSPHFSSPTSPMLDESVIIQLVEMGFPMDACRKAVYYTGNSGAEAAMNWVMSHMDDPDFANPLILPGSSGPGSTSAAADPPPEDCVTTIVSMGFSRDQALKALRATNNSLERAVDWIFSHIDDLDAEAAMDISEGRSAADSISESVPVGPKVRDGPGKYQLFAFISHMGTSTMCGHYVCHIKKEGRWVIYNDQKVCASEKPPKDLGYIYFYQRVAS
UniProt O15372: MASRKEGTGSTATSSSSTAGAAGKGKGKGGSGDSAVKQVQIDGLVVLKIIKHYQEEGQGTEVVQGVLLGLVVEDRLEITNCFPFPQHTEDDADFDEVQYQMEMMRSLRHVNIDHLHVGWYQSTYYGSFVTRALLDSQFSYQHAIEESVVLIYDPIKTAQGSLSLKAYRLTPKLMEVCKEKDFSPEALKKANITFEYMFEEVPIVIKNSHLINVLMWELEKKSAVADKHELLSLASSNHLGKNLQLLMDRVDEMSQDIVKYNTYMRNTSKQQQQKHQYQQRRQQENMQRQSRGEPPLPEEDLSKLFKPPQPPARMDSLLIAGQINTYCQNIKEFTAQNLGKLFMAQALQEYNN
UniProt Q96BN8: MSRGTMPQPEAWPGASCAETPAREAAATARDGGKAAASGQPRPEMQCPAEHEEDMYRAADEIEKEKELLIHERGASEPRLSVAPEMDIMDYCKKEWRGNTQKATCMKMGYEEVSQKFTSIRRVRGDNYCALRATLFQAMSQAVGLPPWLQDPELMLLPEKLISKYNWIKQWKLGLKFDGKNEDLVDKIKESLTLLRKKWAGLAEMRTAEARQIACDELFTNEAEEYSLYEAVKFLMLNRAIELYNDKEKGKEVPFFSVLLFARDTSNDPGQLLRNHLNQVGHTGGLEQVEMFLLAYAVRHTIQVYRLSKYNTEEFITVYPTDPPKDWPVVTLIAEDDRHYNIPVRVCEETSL
UniProt Q93008: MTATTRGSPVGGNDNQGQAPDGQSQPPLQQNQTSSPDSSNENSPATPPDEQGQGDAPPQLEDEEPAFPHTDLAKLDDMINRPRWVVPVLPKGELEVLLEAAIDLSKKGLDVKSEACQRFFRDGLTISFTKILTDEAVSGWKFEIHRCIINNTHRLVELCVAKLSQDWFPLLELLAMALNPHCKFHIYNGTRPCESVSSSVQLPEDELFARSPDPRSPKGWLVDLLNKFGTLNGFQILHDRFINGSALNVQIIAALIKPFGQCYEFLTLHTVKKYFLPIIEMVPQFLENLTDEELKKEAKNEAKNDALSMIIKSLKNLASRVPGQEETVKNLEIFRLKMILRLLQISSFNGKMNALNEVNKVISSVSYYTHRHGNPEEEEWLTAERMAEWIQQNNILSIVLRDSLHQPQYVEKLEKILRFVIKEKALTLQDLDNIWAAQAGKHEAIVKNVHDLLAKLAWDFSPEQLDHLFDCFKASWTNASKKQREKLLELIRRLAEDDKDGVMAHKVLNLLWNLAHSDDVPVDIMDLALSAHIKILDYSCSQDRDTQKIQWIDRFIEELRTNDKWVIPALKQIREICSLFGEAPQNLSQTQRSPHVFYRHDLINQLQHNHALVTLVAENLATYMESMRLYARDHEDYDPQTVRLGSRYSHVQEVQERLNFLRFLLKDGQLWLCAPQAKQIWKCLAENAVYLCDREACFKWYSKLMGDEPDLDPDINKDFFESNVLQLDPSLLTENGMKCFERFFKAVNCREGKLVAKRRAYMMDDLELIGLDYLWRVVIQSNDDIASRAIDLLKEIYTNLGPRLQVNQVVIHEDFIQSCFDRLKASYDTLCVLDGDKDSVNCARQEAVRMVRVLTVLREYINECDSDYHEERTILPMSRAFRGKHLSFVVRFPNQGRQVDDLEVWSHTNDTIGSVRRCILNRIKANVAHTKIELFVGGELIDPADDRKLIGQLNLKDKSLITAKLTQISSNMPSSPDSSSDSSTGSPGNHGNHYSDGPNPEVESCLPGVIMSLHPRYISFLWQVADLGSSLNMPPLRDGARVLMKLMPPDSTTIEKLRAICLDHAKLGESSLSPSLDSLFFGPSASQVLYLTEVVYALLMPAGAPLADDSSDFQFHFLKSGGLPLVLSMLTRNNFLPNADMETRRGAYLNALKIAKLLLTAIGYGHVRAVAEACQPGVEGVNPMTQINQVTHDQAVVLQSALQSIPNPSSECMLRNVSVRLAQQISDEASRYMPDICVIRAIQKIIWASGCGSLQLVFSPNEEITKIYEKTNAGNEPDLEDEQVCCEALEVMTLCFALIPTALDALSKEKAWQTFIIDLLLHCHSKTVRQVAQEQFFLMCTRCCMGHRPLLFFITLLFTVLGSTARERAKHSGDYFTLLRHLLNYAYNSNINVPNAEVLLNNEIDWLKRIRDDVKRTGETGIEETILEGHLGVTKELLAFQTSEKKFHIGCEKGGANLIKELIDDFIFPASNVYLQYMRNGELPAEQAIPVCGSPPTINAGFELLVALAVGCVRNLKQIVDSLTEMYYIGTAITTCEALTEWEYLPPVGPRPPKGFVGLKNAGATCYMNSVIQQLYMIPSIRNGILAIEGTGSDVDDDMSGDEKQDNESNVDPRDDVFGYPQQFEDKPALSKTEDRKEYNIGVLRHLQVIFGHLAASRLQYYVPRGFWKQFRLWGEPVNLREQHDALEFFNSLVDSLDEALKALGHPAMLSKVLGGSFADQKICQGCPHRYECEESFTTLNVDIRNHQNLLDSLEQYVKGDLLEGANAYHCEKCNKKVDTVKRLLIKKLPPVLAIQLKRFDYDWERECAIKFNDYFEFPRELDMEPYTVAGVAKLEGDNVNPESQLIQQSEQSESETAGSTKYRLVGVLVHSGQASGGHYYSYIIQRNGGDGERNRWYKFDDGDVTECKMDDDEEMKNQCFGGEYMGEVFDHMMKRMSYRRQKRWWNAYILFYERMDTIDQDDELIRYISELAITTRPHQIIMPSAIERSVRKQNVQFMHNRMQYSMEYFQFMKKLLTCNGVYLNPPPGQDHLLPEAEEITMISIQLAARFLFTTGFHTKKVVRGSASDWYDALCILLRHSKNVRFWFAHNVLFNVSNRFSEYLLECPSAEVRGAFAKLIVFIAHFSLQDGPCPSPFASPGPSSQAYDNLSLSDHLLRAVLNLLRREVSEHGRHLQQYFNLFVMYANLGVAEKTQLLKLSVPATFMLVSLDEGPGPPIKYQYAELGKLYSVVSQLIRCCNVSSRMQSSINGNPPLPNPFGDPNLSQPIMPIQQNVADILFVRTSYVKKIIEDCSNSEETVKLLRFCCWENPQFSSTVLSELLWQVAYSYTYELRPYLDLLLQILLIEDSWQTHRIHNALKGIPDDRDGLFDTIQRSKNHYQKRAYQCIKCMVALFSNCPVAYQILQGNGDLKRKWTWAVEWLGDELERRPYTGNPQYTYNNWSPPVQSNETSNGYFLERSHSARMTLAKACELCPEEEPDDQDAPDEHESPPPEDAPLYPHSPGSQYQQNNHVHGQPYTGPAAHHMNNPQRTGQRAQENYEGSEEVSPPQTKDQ
UniProt Q7Z434: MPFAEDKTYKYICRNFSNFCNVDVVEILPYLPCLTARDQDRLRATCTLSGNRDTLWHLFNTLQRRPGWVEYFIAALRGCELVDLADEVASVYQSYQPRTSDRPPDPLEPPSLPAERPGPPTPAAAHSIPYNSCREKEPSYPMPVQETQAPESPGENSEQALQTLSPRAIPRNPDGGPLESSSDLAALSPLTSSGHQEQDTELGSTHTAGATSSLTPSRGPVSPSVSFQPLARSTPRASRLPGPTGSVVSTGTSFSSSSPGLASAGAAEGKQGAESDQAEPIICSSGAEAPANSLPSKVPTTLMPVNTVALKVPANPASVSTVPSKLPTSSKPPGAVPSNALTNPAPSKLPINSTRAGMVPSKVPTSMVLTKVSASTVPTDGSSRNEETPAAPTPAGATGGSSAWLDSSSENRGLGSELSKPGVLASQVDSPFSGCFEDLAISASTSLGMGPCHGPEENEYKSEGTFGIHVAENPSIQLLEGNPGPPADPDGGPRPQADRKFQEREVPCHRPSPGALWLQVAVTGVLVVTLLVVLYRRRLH

biological target: flag-NLRP3-APEX2 (human) (UniProt Q96P20); assay: proximity labelling

binding, binds:
USP1 (from UniProt O94782) (enzyme)
USP5 (from UniProt P45974 1-858) (enzyme)
EIF3H (from UniProt O15372 1-352)
OTULIN (from UniProt Q96BN8 1-352) (enzyme)
USP9X (from UniProt Q93008 1-2554) (enzyme)
USP24 (from UniProt Q9UPU5 1-2620) (enzyme)
MAVS (from UniProt Q7Z434 1-540)
B1
B2
B3
B4
